This note sets out measurements from PMC3846882.

Chains of the proteins cited; added tags and fusions are not shown.
UniProt Q15046: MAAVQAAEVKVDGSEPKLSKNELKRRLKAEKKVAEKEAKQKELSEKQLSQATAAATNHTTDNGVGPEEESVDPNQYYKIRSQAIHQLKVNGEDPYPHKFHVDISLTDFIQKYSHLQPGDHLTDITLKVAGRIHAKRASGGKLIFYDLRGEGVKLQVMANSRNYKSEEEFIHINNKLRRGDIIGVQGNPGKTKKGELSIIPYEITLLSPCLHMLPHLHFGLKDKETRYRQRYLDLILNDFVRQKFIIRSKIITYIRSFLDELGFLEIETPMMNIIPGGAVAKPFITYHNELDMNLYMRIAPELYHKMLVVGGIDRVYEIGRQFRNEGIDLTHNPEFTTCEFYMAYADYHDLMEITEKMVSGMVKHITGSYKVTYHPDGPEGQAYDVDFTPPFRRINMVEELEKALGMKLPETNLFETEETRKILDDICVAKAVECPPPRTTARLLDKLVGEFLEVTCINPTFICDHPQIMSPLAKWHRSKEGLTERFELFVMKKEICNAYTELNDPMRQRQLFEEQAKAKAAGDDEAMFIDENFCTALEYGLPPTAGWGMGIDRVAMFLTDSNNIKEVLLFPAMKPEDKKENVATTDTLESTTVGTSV

No constants are given. Whether binding was seen depends on the method and setting. In cells and extracts the contact can be indirect. These calls come from enrichment with a bait or labelling near it, and not all partners need be listed. For part of these data: Where a sequence is shown, tags or fusion partners need not be part of it.

Common to all, as to experiment: affinity purification with mass spectrometry; S/FLAG/SBP-tagged bait transiently expressed in HEK 293T and HCT-8 cells; 2 mg lysate protein in NETN buffer (20 mM Tris-HCl pH 7.4, 1 mM EDTA, 150 mM NaCl, 0.5% Nonidet P-40) on streptavidin agarose, 2 h, 4 °C; eluted with biotin; in-gel digestion, LC-MS/MS; SAINT probability 0.9 or above against a mock vector with the tag only; three biological replicates

For experiment [1], the target named is T1, S/FLAG/SBP tagged AIMP1, Q12904.
T1 chain: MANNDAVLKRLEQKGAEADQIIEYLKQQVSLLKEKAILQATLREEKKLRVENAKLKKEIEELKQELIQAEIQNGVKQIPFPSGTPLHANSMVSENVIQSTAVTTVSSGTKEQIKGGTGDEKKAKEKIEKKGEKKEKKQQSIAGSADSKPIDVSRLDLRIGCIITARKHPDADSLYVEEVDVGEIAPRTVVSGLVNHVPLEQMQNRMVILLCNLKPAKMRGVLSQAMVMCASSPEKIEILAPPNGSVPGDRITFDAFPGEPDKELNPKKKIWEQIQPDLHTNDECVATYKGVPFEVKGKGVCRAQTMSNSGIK
The conditions noted are these: remark: other sources report otherwise.

In experiment [2] the target is T2, S/FLAG/SBP tagged AIMP2, Q13155.
T2 chain: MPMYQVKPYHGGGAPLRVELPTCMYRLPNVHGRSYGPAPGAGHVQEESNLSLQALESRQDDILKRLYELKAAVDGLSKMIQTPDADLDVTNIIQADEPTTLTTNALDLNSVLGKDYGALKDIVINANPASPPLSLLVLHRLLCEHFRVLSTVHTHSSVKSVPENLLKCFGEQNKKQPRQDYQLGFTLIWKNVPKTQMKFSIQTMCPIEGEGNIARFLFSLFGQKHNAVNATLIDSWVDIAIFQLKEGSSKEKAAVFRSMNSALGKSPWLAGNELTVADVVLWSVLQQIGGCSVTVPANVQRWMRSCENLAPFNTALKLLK
The conditions noted are these: remark: other sources report otherwise.

Experiment [3] concerns the target S/FLAG/SBP tagged KARS, Q15046. The conditions noted are these: remark: other sources report otherwise.
In another experiment the target is T3, S/FLAG/SBP tagged AIMP1 (UniProt Q12904).
T3 sequence: T1 chain

Another experiment deals with T4, S/FLAG/SBP tagged AIMP2 (UniProt Q13155).
T4 sequence: T2 chain

The target in another experiment is S/FLAG/SBP tagged KARS (UniProt Q15046).

B1: Arginyl-tRNA synthetase, P54136 1-660 (enzyme)
chain: MDVLVSECSARLLQQEEEIKSLTAEIDRLKNCGCLGASPNLEQLQEENLKLKYRLNILRKSLQAERNKPTKNMINIISRLQEVFGHAIKAAYPDLENPPLLVTPSQQAKFGDYQCNSAMGISQMLKTKEQKVNPREIAENITKHLPDNECIEKVEIAGPGFINVHLRKDFVSEQLTSLLVNGVQLPALGENKKVIVDFSSPNIAKEMHVGHLRSTIIGESISRLFEFAGYDVLRLNHVGDWGTQFGMLIAHLQDKFPDYLTVSPPIGDLQVFYKESKKRFDTEEEFKKRAYQCVVLLQGKNPDITKAWKLICDVSRQELNKIYDALDVSLIERGESFYQDRMNDIVKEFEDRGFVQVDDGRKIVFVPGCSIPLTIVKSDGGYTYDTSDLAAIKQRLFEEKADMIIYVVDNGQSVHFQTIFAAAQMIGWYDPKVTRVFHAGFGVVLGEDKKKFKTRSGETVRLMDLLGEGLKRSMDKLKEKERDKVLTAEELNAAQTSVAYGCIKYADLSHNRLNDYIFSFDKMLDDRGNTAAYLLYAFTRIRSIARLANIDEEMLQKAARETKILLDHEKEWKLGRCILRFPEILQKILDDLFLHTLCDYIYELATAFTEFYDSCYCVEKDRQTGKILKVNMWRMLLCEAVAAVMAKGFDILGIKPVQRM
For B1, the binding entry in experiment [1], in experiment [2] and in experiment [3] was “binds” in each case.

B2: Methionyl-tRNA synthetase, P56192 1-900 (enzyme)
chain: MRLFVSDGVPGCLPVLAAAGRARGRAEVLISTVGPEDCVVPFLTRPKVPVLQLDSGNYLFSTSAICRYFFLLSGWEQDDLTNQWLEWEATELQPALSAALYYLVVQGKKGEDVLGSVRRALTHIDHSLSRQNCPFLAGETESLADIVLWGALYPLLQDPAYLPEELSALHSWFQTLSTQEPCQRAAETVLKQQGVLALRPYLQKQPQPSPAEGRAVTNEPEEEELATLSEEEIAMAVTAWEKGLESLPPLRPQQNPVLPVAGERNVLITSALPYVNNVPHLGNIIGCVLSADVFARYSRLRQWNTLYLCGTDEYGTATETKALEEGLTPQEICDKYHIIHADIYRWFNISFDIFGRTTTPQQTKITQDIFQQLLKRGFVLQDTVEQLRCEHCARFLADRFVEGVCPFCGYEEARGDQCDKCGKLINAVELKKPQCKVCRSCPVVQSSQHLFLDLPKLEKRLEEWLGRTLPGSDWTPNAQFITRSWLRDGLKPRCITRDLKWGTPVPLEGFEDKVFYVWFDATIGYLSITANYTDQWERWWKNPEQVDLYQFMAKDNVPFHSLVFPCSALGAEDNYTLVSHLIATEYLNYEDGKFSKSRGVGVFGDMAQDTGIPADIWRFYLLYIRPEGQDSAFSWTDLLLKNNSELLNNLGNFINRAGMFVSKFFGGYVPEMVLTPDDQRLLAHVTLELQHYHQLLEKVRIRDALRSILTISRHGNQYIQVNEPWKRIKGSEADRQRAGTVTGLAVNIAALLSVMLQPYMPTVSATIQAQLQLPPPACSILLTNFLCTLPAGHQIGTVSPLFQKLENDQIESLRQRFGGGQAKTSPKPAVVETVTTAKPQQIQALMDEVTKQGNIVRELKAQKADKNEVAAEVAKLLDLKKQLAVAEGKPPEAPKGKKKK
Regarding B2, in experiment [2], the binding result is reported as “binds”.

B3: Aspartyl-tRNA synthetase, P14868 1-501 (enzyme)
chain: MPSASASRKSQEKPREIMDAAEDYAKERYGISSMIQSQEKPDRVLVRVRDLTIQKADEVVWVRARVHTSRAKGKQCFLVLRQQQFNVQALVAVGDHASKQMVKFAANINKESIVDVEGVVRKVNQKIGSCTQQDVELHVQKIYVISLAEPRLPLQLDDAVRPEAEGEEEGRATVNQDTRLDNRVIDLRTSTSQAVFRLQSGICHLFRETLINKGFVEIQTPKIISAASEGGANVFTVSYFKNNAYLAQSPQLYKQMCICADFEKVFSIGPVFRAEDSNTHRHLTEFVGLDIEMAFNYHYHEVMEEIADTMVQIFKGLQERFQTEIQTVNKQFPCEPFKFLEPTLRLEYCEALAMLREAGVEMGDEDDLSTPNEKLLGHLVKEKYDTDFYILDKYPLAVRPFYTMPDPRNPKQSNSYDMFMRGEEILSGAQRIHDPQLLTERALHHGIDLEKIKAYIDSFRFGAPPHAGGGIGLERVTMLFLGLHNVRQTSMFPRDPKRLTP
As to B3, the binding result in experiment [1], in experiment [2] and in experiment [3] was “binds” throughout.

B4: Glutaminyl-tRNA synthetase (enzyme, UniProt P47897 1-775)
chain: MAALDSLSLFTSLGLSEQKARETLKNSALSAQLREAATQAQQTLGSTIDKATGILLYGLASRLRDTRRLSFLVSYIASKKIHTEPQLSAALEYVRSHPLDPIDTVDFERECGVGVIVTPEQIEEAVEAAINRHRPQLLVERYHFNMGLLMGEARAVLKWADGKMIKNEVDMQVLHLLGPKLEADLEKKFKVAKARLEETDRRTAKDVVENGETADQTLSLMEQLRGEALKFHKPGENYKTPGYVVTPHTMNLLKQHLEITGGQVRTRFPPEPNGILHIGHAKAINFNFGYAKANNGICFLRFDDTNPEKEEAKFFTAICDMVAWLGYTPYKVTYASDYFDQLYAWAVELIRRGLAYVCHQRGEELKGHNTLPSPWRDRPMEESLLLFEAMRKGKFSEGEATLRMKLVMEDGKMDPVAYRVKYTPHHRTGDKWCIYPTYDYTHCLCDSIEHITHSLCTKEFQARRSSYFWLCNALDVYCPVQWEYGRLNLHYAVVSKRKILQLVATGAVRDWDDPRLFTLTALRRRGFPPEAINNFCARVGVTVAQTTMEPHLLEACVRDVLNDTAPRAMAVLESLRVIITNFPAAKSLDIQVPNFPADETKGFHQVPFAPIVFIERTDFKEEPEPGFKRLAWGQPVGLRHTGYVIELQHVVKGPSGCVESLEVTCRRADAGEKPKAFIHWVSQPLMCEVRLYERLFQHKNPEDPTEVPGGFLSDLNLASLHVVDAALVDCSVALAKPFDKFQFERLGYFSVDPDSHQGKLVFNRTVTLKEDPGKV
B4: the binding entry with S/FLAG/SBP tagged AIMP1, in the experiment with S/FLAG/SBP tagged AIMP2 and in the experiment with S/FLAG/SBP tagged KARS was “binds” throughout.

B5: Isoform 1 of Probable threonyl-tRNA synthetase 2, A2RTX5 1-802 (enzyme)
chain: MAAEALAAEAVASRLERQEEDIRWLWSEVERLRDEQLNAPYSCQAEGPCLTREVAQLRAENCDLRHRLCSLRLCLAEERSRQATLESAELEAAQEAGAQPPPSQSQDKDMKKKKMKESEADSEVKHQPIFIKERLKLFEILKKDHQLLLAIYGKKGDTSNIITVRVADGQTVQGEVWKTTPYQVAAEISQELAESTVIAKVNGELWDLDRPLEGDSSLELLTFDNEEAQAVYWHSSAHILGEAMELYYGGHLCYGPPIENGFYYDMFIEDRAVSSTELSALENICKAIIKEKQPFERLEVSKEILLEMFKYNKFKCRILNEKVNTATTTVYRCGPLIDLCKGPHVRHTGKIKTIKIFKNSSTYWEGNPEMETLQRIYGISFPDNKMMRDWEKFQEEAKNRDHRKIGKEQELFFFHDLSPGSCFFLPRGAFIYNTLTDFIREEYHKRDFTEVLSPNMYNSKLWEASGHWQHYSENMFTFEIEKDTFALKPMNCPGHCLMFAHRPRSWREMPIRFADFGVLHRNELSGTLSGLTRVRRFQQDDAHIFCTVEQIEEEIKGCLQFLQSVYSTFGFSFQLNLSTRPENFLGEIEMWNEAEKQLQNSLMDFGEPWKMNPGDGAFYGPKIDIKIKDAIGRYHQCATIQLDFQLPIRFNLTYVSKDGDDKKRPVIIHRAILGSVERMIAILSENYGGKWPFWLSPRQVMVIPVGPTCEKYALQVSSEFFEEGFMADVDLDHSCTLNKKIRNAQLAQYNFILVVGEKEKIDNAVNVRTRDNKIHGEILVTSAIDKLKNLRKTRTLNAEEAF
For the molecule B5, the binding result in experiment [3] is listed as “binds”.

B6: Aminoacyl tRNA synthase complex-interacting multifunctional protein 1 (endogenous, canonical), Q12904 1-312 (protein)
chain: T1 chain
Consider B6, for which the binding entry in experiment [3] is reported as “binds”.
